Primary screen of a compound library

Mtb glucose medium: 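Whole-cell growth test on Mycobacterium tuberculosis, read after 3 days in glucose-containing 7H9 medium; the read-out is not stated. Concentration: 50 µM. Direction is inferred from retests: higher values go with more growth inhibition. Of about 69,000 compounds tested this way, about 760 (1.1%) reached 50% or more in at least one test.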
Mtb cholesterol medium: 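Growth of Mycobacterium tuberculosis over 4 days (cholesterol / DPPC medium with tyloxapol); the read-out is not stated. Compounds at 50 µM. Direction is inferred from retests: higher values go with more growth inhibition. About 69,000 compounds were tested under these conditions; 0.54% (about 370) showed 50% or more at least once.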

Each number is a percent effect as filed. The controls that fix the scale are not given in the record; negative values are as filed. This is an unselected part of the compounds tested. Two or more numbers in one place are separate tests of the same structure; such repeats can differ widely.

Compound: c1ccc(OC[C@H]2CCC[C@]23CN(Cc2nccs2)CCO3)nc1
Mtb glucose medium: 14.02
Mtb cholesterol medium: 14.73

Compound: CCN1CCC2(CC1)CC(NCc1ccncc1)c1ccccc1O2.O=C(O)C(F)(F)F.O=C(O)C(F)(F)F.O=C(O)C(F)(F)F (stereo not given)
Mtb glucose medium: 16.69
Mtb cholesterol medium: -8.265

Compound: CN(C)C(=O)N1Cc2ncn(C)c2C(COCC2CCOCC2)C1.O=C(O)C(F)(F)F (stereo not given)
Mtb glucose medium: -19.56
Mtb cholesterol medium: -28

Compound: Cn1nc(CN2CCCCC2)c2c1CN(C(=O)c1ccccc1)C2
Mtb glucose medium: -28.21
Mtb cholesterol medium: -28.99

Compound: CC(C)Oc1ccc(Cl)c(C(=O)N2CCN(CCO)CC2)n1
Mtb glucose medium: -8.782
Mtb cholesterol medium: -4.092

Compound: Cc1ccccc1CCCN(Cc1ccccn1)S(C)(=O)=O
Mtb glucose medium: 12.71
Mtb cholesterol medium: 0.8395

Compound: CC(C)CS(=O)(=O)CC(=O)NC(C)(C)c1cccc(F)c1
Mtb glucose medium: 3.733
Mtb cholesterol medium: -19.29

Compound: O=C(NCC(Cc1cccc(F)c1)N1CCCC1=O)C1CCCC1 (stereo not given)
Mtb glucose medium: 2.111
Mtb cholesterol medium: 8.877

Compound: CCC(NS(C)(=O)=O)c1ccccc1C (stereo not given)
Mtb glucose medium: 9.78 & -1.151
Mtb cholesterol medium: -4.414

Compound: CCc1oc(C(=O)N(C)Cc2ccncc2)cc1CN(CC)CC
Mtb glucose medium: 10.31
Mtb cholesterol medium: 0.4662

Compound: O=C(NCc1cc(O)ncn1)C1CCOc2ccccc2C1 (stereo not given)
Mtb glucose medium: -13.2
Mtb cholesterol medium: -16.06

Compound: O=C(O)C(F)(F)F.[H][C@@]12CN(C(=O)c3ccsc3)C[C@]1([H])C(=O)N(CCN(C)C)C2
Mtb glucose medium: -39.36
Mtb cholesterol medium: -17.43

Compound: CN1C(=O)CC(c2cnn(C)c2)C12CCN(C(=O)c1cccn1C)CC2 (stereo not given)
Mtb glucose medium: 9.128
Mtb cholesterol medium: -27.86

Compound: C[C@@H]1CN(C2CCOC2)C[C@]12CCN(Cc1cccnc1)C2=O.O=C(O)C(F)(F)F.O=C(O)C(F)(F)F (stereo not given in full)
Mtb glucose medium: -11.3
Mtb cholesterol medium: -26.97

Compound: COc1cc(CNC(C)c2nnc3n2CCC3)cc(OC)c1 (stereo not given)
Mtb glucose medium: -20.65
Mtb cholesterol medium: -26.25

Compound: CC1(C(=O)NCc2cccnc2Oc2ccc(F)cc2F)CCCNC1 (stereo not given)
Mtb glucose medium: -32.27
Mtb cholesterol medium: -9.196

Compound: CN(C)c1cccc(C(=O)N2CCCc3cc(OC(F)(F)F)ccc32)c1
Mtb glucose medium: 43.48
Mtb cholesterol medium: 21.25

Compound: O=C(O)C(F)(F)F.[H][C@@]12OCCC[C@]1([H])N(C)C[C@@H]2NC(=O)c1cscn1
Mtb glucose medium: 3.931
Mtb cholesterol medium: -11.93

Compound: Cc1cc(Br)ccc1NCc1ccc(C(=O)N(C)C)[nH]1
Mtb glucose medium: -21.47
Mtb cholesterol medium: -21.86

Compound: Cc1ncnc2c1CCN(C(=O)c1ccnnc1)CC2
Mtb glucose medium: 17.12 & 1.964
Mtb cholesterol medium: -6.415

Compound: O=C(Nc1ccc(N2CCCCC2)nc1)N1CCc2sccc2C1
Mtb glucose medium: 21.64
Mtb cholesterol medium: 30.31

Compound: c1ccc(-c2nnc([C@H]3CCN(C4CCOCC4)C3)o2)cc1
Mtb glucose medium: 38.89 & 30.13
Mtb cholesterol medium: 29.45

Compound: CC1CN(C)CCN1C(=O)Nc1nc(-c2ccc[nH]2)cs1 (stereo not given)
Mtb glucose medium: -1.623 & -12.76
Mtb cholesterol medium: -17.26

Compound: CNc1ccc(C)cc1C(=O)N1CCCC2(CCNC2)C1 (stereo not given)
Mtb glucose medium: 7.86
Mtb cholesterol medium: 10.96

Compound: O=C(O)C(F)(F)F.O=C(O)C(F)(F)F.O=C(O)C(F)(F)F.c1cc(CN2CCOCC3(C2)CN(Cc2nccs2)CCO3)ccn1 (stereo not given)
Mtb glucose medium: -12.75 & -53.24
Mtb cholesterol medium: 1.801 & -25.83

Compound: CN(C)S(=O)(=O)N1CCN(C(=O)c2ccc3ccn(C)c3c2)CC1
Mtb glucose medium: 11.03
Mtb cholesterol medium: 16.35

Compound: Cc1cnn(Cc2ccc(NC(=O)N[C@@H]3C=C[C@H](CO)C3)cc2)c1
Mtb glucose medium: 4.003 & 20.66
Mtb cholesterol medium: -15.95

Compound: COCCC1(CO)CCCN(C(=O)c2cccnc2OC)C1 (stereo not given)
Mtb glucose medium: -4.792
Mtb cholesterol medium: -2.918

Compound: O=C(NCCNS(=O)(=O)c1ccc2c(c1)CCC2)c1ccccc1
Mtb glucose medium: -17.29
Mtb cholesterol medium: -14.01

Compound: [H][C@@]12C[C@@H](Oc3cncnc3)CN1CCN(C(=O)c1ccco1)C2
Mtb glucose medium: -32.19 & -5.556
Mtb cholesterol medium: -17.8

Compound: CCN(Cc1noc(C)n1)C(=O)CCn1c(C)cc2ccccc21
Mtb glucose medium: 44.7
Mtb cholesterol medium: 32.11

Compound: O=C(O)C(F)(F)F.O=C(O)C(F)(F)F.O=C(O)C(F)(F)F.O=C1N(c2cccnc2)CCC12CCCN(Cc1cccnc1)C2 (stereo not given)
Mtb glucose medium: -1.766 & -5.488
Mtb cholesterol medium: -24.29

Compound: CCOC(=O)Cc1csc(NC(=O)c2ccc(=O)[nH]n2)n1
Mtb glucose medium: 26.03
Mtb cholesterol medium: 20.54

Compound: C[C@H]1CN(C)C[C@@]12COCCN(C(=O)Cc1ccccc1)C2.O=C(O)C(F)(F)F
Mtb glucose medium: -4.556 & -18.86
Mtb cholesterol medium: -10.49

Compound: CCC(NC(N)=O)c1ccccc1OCC(=O)N1CCCC1 (stereo not given)
Mtb glucose medium: -12.53
Mtb cholesterol medium: -4.305

Compound: Cl.NC[C@H]1CC[C@H](c2c(C(N)=O)sc3ccccc32)CC1
Mtb glucose medium: 9.292
Mtb cholesterol medium: -5.723

Compound: Cn1cc(C2CCCN2C(=O)c2cnc(-c3cccs3)s2)cn1 (stereo not given)
Mtb glucose medium: -20.5
Mtb cholesterol medium: -22.57 & -4.556

Compound: CN(CCN1CCCCCC1)C(=O)c1c(O)cccc1O
Mtb glucose medium: 11.52
Mtb cholesterol medium: -7.368 & 11.27

Compound: O=C(CNC(=O)C1CC1)Nc1c(F)cccc1Oc1ccccc1
Mtb glucose medium: 14.1 & -17.36
Mtb cholesterol medium: -3.857

Source: ChEMBL document CHEMBL3988442, “University of Dundee, Small-Polar-MMV Screening Library” (2021).